# Reference: PubChem BioAssay AID1671190 (National Center for Advancing Translational Sciences (NCATS), 2021)
# Amino acid sequences for entries named in this document (tags omitted). A change or cut given only in a name is not applied to a line headed by its entry.
# UniProt P18054: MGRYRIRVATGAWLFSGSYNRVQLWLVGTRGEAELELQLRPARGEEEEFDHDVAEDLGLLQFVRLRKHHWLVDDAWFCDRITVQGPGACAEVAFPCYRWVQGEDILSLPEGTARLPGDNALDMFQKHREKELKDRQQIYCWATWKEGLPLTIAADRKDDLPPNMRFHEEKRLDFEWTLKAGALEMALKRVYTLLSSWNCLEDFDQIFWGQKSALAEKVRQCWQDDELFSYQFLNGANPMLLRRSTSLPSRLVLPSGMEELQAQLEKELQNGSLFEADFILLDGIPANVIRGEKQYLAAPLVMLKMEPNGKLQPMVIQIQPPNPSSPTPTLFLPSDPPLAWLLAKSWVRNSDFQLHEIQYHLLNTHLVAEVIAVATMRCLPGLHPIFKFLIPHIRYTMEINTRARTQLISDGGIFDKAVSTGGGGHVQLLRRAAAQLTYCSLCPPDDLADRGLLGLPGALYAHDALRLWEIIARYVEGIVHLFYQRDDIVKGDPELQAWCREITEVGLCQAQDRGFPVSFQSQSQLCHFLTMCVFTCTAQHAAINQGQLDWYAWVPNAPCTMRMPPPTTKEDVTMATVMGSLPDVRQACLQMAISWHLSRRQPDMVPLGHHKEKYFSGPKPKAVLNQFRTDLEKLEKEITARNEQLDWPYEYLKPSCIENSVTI
# Out of some 580,000 compounds screened, about 6,100 (1.1%) were called active. The inconclusive results got no clear call from the source; some entries with a clear call stand among them for comparison. Calls follow the shape of the dose curve; as a rule, active = well fitted inhibition curve with a large enough effect; inconclusive = small, poorly fitted or top-dose-only effect, or another doubt; inactive = no such curve, though single readings can be large or run the other way. A potency beside an inconclusive call is a rough fit, not a confirmed value.
# Target: Polyunsaturated fatty acid lipoxygenase ALOX12 (Homo sapiens) (UniProt P18054)
# Assay: Primary qHTS assay for inhibitors of human arachidonate 12S-lipoxygenase (ALOX12): Round 2
# Settings: purified 12hLO, xylenol orange hydroperoxide absorbance; activity change, negative = inhibition: at 108 µM (top of the series) unless noted
# In short: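 Purified human 12hLO (150 nM final) in 25 mM Hepes, 0.01% Triton X-100, pH 7.0 was preincubated 15 min at room temperature with compound. Then 40 uM arachidonic acid was added, 30 min. Hydroperoxide was read by Fe-XO absorbance ratio 573/405 nm.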
# % is scaled to controls: 0 for no effect and ±100 for the full control effect; potency is read from the fitted curve at half-maximal effect.
Structure (SMILES),Potency,"activity change, negative = inhibition"
CSc1nnc(NC(=O)CCc2ccccc2)s1,"inconclusive: 50.1 µM [inhibitor, partial curve, poor fit]",–
N#Cc1c(Cl)nc2c(c1C#N)CCCC2,"inconclusive: 112 µM [inhibitor, partial curve, poor fit]",–
CN(C)c1ccc(/C=N/n2c(-c3cccnc3)n[nH]c2=S)cc1,"inconclusive: 100 µM [inhibitor, single point]",–
Cc1cc(Cl)ccc1C(O)c1ncc(-c2ccc(Cl)cc2)[nH]1 (stereo not drawn),–,inactive: -17.8%
Nc1nccnc1C(=O)OCc1nc2sc3c(c2c(=O)[nH]1)CCCC3,–,inactive: 11.6%
FC(F)(F)c1cc(-c2ccccc2)nc(SCc2ccccc2Cl)n1,–,inactive: -12.4%
COc1cccc(CN(C)C[C@@H]2OCc3cnnn3CCCC(=O)N([C@@H](C)CO)C[C@H]2C)c1,"inconclusive: 100 µM [inhibitor, single point]",–
COc1ccc(OC)c(CN2CCSCC2)c1,"inconclusive: 0.282 µM [inhibitor, full curve, poor fit]",–
N#Cc1cccc(C(=O)OC(c2ccccc2)c2ccccn2)c1 (stereo not drawn),"inconclusive: 22.4 µM [inhibitor, partial curve, poor fit]",–
N#Cc1cnn(-c2ccc(NC(=O)c3ccc4[nH]c5c(c4c3)CCCC5)cc2)c1N,"inconclusive: 1.26 µM [inhibitor, full curve, poor fit]",–
CCOc1ccccc1C1CC(=O)Nc2cc3c(cc21)OCO3 (stereo not drawn),"inconclusive: 112 µM [inhibitor, single point]",–
Cc1ccc(N)c(OCC(F)F)c1,–,inactive: 35.4%
O=C(O)c1ccc(-c2nc3ccccc3s2)o1,–,inactive: -11.5%
NC1CCCCN(Cc2cc3ccccc3o2)C1 (stereo not drawn),"inconclusive: 3.16 µM [inhibitor, full curve]",–
Cc1cc(C(=O)OCC(=O)N(C)c2c(N)n(Cc3ccccc3)c(=O)[nH]c2=O)c(C)n1-c1ccccc1,"inconclusive: 141 µM [inhibitor, single point]",–
CC1N(C)c2cc(NC(=O)c3ccco3)ccc2C1(C)C (stereo not drawn),"inconclusive: 28.2 µM [inhibitor, partial curve, poor fit]",–
O=C(COc1ccc(CO)cc1Cl)Nc1ccc(F)cc1,–,inactive: -16.9%
Cn1c(SCC(=O)c2ccc(O)c(O)c2)nnc1-c1cccs1,"inconclusive: 63.1 µM [inhibitor, partial curve, poor fit]",–
COc1ccc(S(=O)(=O)N2CCOCC2)cc1NC(=O)CCNC(=O)c1ccc([N+](=O)[O-])cc1,"inconclusive: 70.8 µM [inhibitor, partial curve, poor fit]",–
COC[C@@H]1CN(C(=O)Cc2ccccc2Cl)C[C@H]1c1ccncc1,–,inactive: 33.1%
Cc1cc(C)c2cc(C#N)c(NCCCNC(=O)c3cccnc3)nc2c1,–,inactive: 0.751%
Cc1ccc(-c2cc(C(=O)N3CCCCC3)c3cc(Br)ccc3n2)o1,active: 8.91 µM,–
CN(C)C(=O)c1ccc(CNc2nc3ccccc3o2)cc1,–,inactive: 10.3%

# Some of the entries above in a different format.
Structure (SMILES)	Potency	activity change, negative = inhibition
CN(C)c1ccc(/C=N/n2c(-c3cccnc3)n[nH]c2=S)cc1	inconclusive: 100 µM [inhibitor, single point]	–
Cc1cc(Cl)ccc1C(O)c1ncc(-c2ccc(Cl)cc2)[nH]1 (stereo not drawn)	–	inactive: -17.8%
Nc1nccnc1C(=O)OCc1nc2sc3c(c2c(=O)[nH]1)CCCC3	–	inactive: 11.6%

# Remaining list, next part.

Structure (SMILES),Potency,"activity change, negative = inhibition"
CCOc1ccccc1C(=O)N1CCC(Oc2ncccc2C(=O)N2CCCCC2)C1 (stereo not drawn),–,inactive: 47.1%
OC(c1cc(-c2ccc(Cl)cc2)nc2ccccc12)C1CCCCN1 (stereo not drawn),"inconclusive: 63.1 µM [inhibitor, partial curve, poor fit]",–
O=C1C=C(c2cccs2)C[C@H](c2ccccc2)[C@H]1n1nnc([N+](=O)[O-])n1,"inconclusive: 50.1 µM [inhibitor, partial curve, poor fit]",–
CC(NC(=O)CN(C)Cc1cccc(Cl)c1)c1ccccc1 (stereo not drawn),"inconclusive: 5.62 µM [inhibitor, full curve, poor fit]",–
CCCCC(=O)NC(=S)Nc1nnn(CCC)n1,"inconclusive: 2.82 µM [inhibitor, full curve]",–
Cn1cc(C(=O)NCC2CN(C(=O)Cc3cccc(Oc4ccccc4)c3)CC23CN(c2ccccc2)C3)cn1 (stereo not drawn),"inconclusive: 89.1 µM [inhibitor, partial curve, poor fit]",–
COc1ccc(C(=O)NC(=S)NCC2CCCO2)cc1 (stereo not drawn),"inconclusive: 56.2 µM [inhibitor, partial curve, poor fit]",–
COC(=O)c1cc(N2CCC(C(C)N3CCN(C)CC3)CC2)ncn1 (stereo not drawn),"inconclusive: 3.98 µM [inhibitor, full curve, poor fit]",–
O=C1NCCCCCCN(S(=O)(=O)c2ccc3c(c2)CCC3)[C@H]2CCCC[C@@H]12,"inconclusive: 15.8 µM [inhibitor, full curve, poor fit]",–
Cc1ccccc1-c1csc(C(C)(O)c2ccccc2)n1 (stereo not drawn),"inconclusive: 112 µM [inhibitor, single point]",–
O=C(CCSCc1nc2ccccc2s1)NC1CCCCC1,"inconclusive: 7.94 µM [inhibitor, full curve, poor fit]",–
O=C(NCc1ccccc1)c1ccccc1OCC(=O)N1CCCCC1,"inconclusive: 100 µM [inhibitor, partial curve, poor fit]",–
O=C(COc1ccc(F)cc1)NC1CC1,"inconclusive: 126 µM [inhibitor, single point]",–
Cc1ccccc1OCC(=O)N1CCN(C(=O)COc2ccccc2C)CC1,"inconclusive: 70.8 µM [inhibitor, partial curve, poor fit]",–
COc1ccc(-c2nnn(CC(=O)N3CCN(c4ccccc4OC)CC3)n2)cc1,–,inactive: 2.65%
Cc1cc2c(cc(C(=O)NCCCN3CCOCC3)n2Cc2ccc(Cl)cc2)o1,–,inactive: -2.01%
CC(C)CCN1C(=O)CC[C@]2(C(=O)N3CCN(C)CC3)CCCC[C@@H]12,"inconclusive: 3.55 µM [inhibitor, full curve]",–
Clc1cccc(Cl)c1CSc1nnc(CN2CCOCC2)n1-c1ccccc1,"inconclusive: 5.01 µM [inhibitor, partial curve, poor fit]",–
COc1ccc(C)cc1NC(=O)CSc1nnc(-c2ccco2)n1N,–,inactive: -17%
C[C@H](CO)N1C[C@H](C)[C@H](CN(C)Cc2ccc(Oc3ccccc3)cc2)Oc2cc(Br)ccc2S1(=O)=O,"inconclusive: 126 µM [inhibitor, partial curve, poor fit]",–
COc1ccc(-c2csc3ncnc(N4CCN(C(=O)c5ccco5)CC4)c23)cc1,"inconclusive: 35.5 µM [inhibitor, partial curve, poor fit]",–
CCc1cccc(CC)c1NC(=O)c1c(C)oc2ccc(O)c(CN3CCCC3)c12,–,inactive: -5.38%
O=C(Nc1cccc(F)c1)c1cccnc1NCc1ccccc1,"inconclusive: 25.1 µM [inhibitor, partial curve, poor fit]",–

Structure (SMILES),Potency,"activity change, negative = inhibition"
O=c1cc(-c2ccccc2)oc2ccc(Br)cc12,"inconclusive: 35.5 µM [inhibitor, partial curve, poor fit]",–
NC(=S)N/N=C/c1ccc(-c2ccc(SC(F)F)cc2)o1,"inconclusive: 35.5 µM [inhibitor, partial curve, poor fit]",–
Cc1ccccc1-c1nc2cc(NC(=O)c3ccco3)ccc2o1,"inconclusive: 79.4 µM [inhibitor, partial curve, poor fit]",–
CCCCOCC1CN(Cc2ccccc2OC)S(=O)(=O)c2cc(Cl)ccc2O1 (stereo not drawn),"inconclusive: 89.1 µM [inhibitor, single point]",–
COC(=O)C1=C(C)N(Cc2cccc(C(F)(F)F)c2)C(=NCc2ccc3c(c2)OCO3)NC1c1cccc(Cl)c1 (stereo not drawn),"inconclusive: 79.4 µM [inhibitor, partial curve, poor fit]",–
O=C(Nc1ccccc1)Nc1nnc(SCC(=O)N2CCCCC2)s1,–,inactive: -24.3%
CC1CC1c1ccc(/C=C(\C#N)C(=O)Nc2ccc(Cl)cc2Cl)o1 (stereo not drawn),–,inactive: -23.1%
O=C(O)c1ccc(Cc2ccc(C(=O)O)o2)o1,"inconclusive: 22.4 µM [inhibitor, partial curve, poor fit]",–
CC(Sc1nnc(-c2ccncc2)n1C)C(=O)NCC1CCCO1 (stereo not drawn),"inconclusive: 100 µM [inhibitor, single point]",–
Cc1cc(C(=O)OCC(=O)c2c(N)n(C)c(=O)n(C)c2=O)c(C)n1-c1ccccc1,"inconclusive: 22.4 µM [inhibitor, partial curve, poor fit]",–
CCS(=O)(=O)N1Cc2cc(C(=O)NCCOC)nc(-c3cccc(-c4ccncc4)c3)c2[C@H]1CCO,"inconclusive: 89.1 µM [inhibitor, partial curve, poor fit]",–
Cn1nnc(NC(=O)c2ccc(Br)o2)n1,–,inactive: -11.7%
O=C(Cn1cnc(S(=O)(=O)N2CCOCC2)c1)N1CCN(c2ccc(F)cc2)CC1,"inconclusive: 31.6 µM [inhibitor, partial curve]",–
COc1ccc(-c2cc(N3CCCC(NC(=O)Cc4ccsc4)C3)n[nH]2)cc1 (stereo not drawn),–,inactive: 46.8%
Cc1c(C(=O)NCc2nccs2)cnn1-c1ncc2c(n1)-c1ccccc1CC2,–,inactive: -3.1%
COc1ccc(CCNc2oc(Cc3cccc4ccccc34)nc2C#N)cc1OC,–,inactive: -23.2%
Cc1ccc(-c2noc([C@@H]3C[C@H](NS(=O)(=O)c4ccc(Cl)cc4)CN3C)n2)cc1,"inconclusive: 15.8 µM [inhibitor, full curve]",–
CCc1nc2ccccc2c(NC(=O)CN2CCC(C)CC2)c1C,"inconclusive: 0.282 µM [inhibitor, full curve, poor fit]",–
Cc1ccc2cc(/C=C(\C#N)C(N)=O)c(N3CCCCC3)nc2c1,–,inactive: -19.1%
C=CCOc1ccc2ccccc2c1CNn1cn[nH]c1=S,"inconclusive: 28.2 µM [inhibitor, partial curve, poor fit]",–
COC(=O)C1=C(C)NC(=S)NC1c1ccc(-c2cc(Cl)ccc2Cl)o1 (stereo not drawn),active: 17.8 µM,–
Cc1ccc(C(CNS(=O)(=O)c2ccc([N+](=O)[O-])cc2)N2CCN(C)CC2)cc1 (stereo not drawn),"inconclusive: 44.7 µM [inhibitor, partial curve, poor fit]",–

# A portion from the list above, as a working copy:
Structure (SMILES),Potency,"activity change, negative = inhibition"
FC(F)(F)c1cc(-c2ccccc2)nc(SCc2ccccc2Cl)n1,–,inactive: -12.4%
COc1cccc(CN(C)C[C@@H]2OCc3cnnn3CCCC(=O)N([C@@H](C)CO)C[C@H]2C)c1,"inconclusive: 100 µM [inhibitor, single point]",–
